Laboratory results taken from PubChem BioAssay AID298 (DTP/NCI, 2004).
The list does not hold the whole screen: it is rich in T/C values a quarter to a half above the control, in often repeated tests (any T/C) and in doses without a T/C. Further doses and runs are listed elsewhere. T/C gives the treated animals as a percentage of the vehicle group. Schedules are NCI's codes, read here as Q, the interval in days (D) or hours (H), X, the number of doses. Additions like (4×) count equal records among those shown. Some doses have a count of surviving animals in place of a T/C: the source files T/C as zero there, which appears to mark a toxic dose or a test without result, not a measured value. Counts of survivors are from the toxicity check (mostly the fifth day) where no day follows; animals may have died later. Some entries were tested several times; their values stand side by side, smallest first.

System: MX-1 breast xenograft, intrarenal, nude mice, tumor weight
Assay: NCI In Vivo Anticancer Drug Screen. Data for tumor model Human Mammary Carcinoma MX-1 Xenograft (intrarenal inoculation) in NU/NU BALB/C (nude) mice
Conditions: T/C endpoint: mean tumor weight change, higher T/C = larger tumour; for T/C: evaluated on day 11
In short: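 T/C readout: treated-group measurement over vehicle-control measurement, using tumor size or survival in tumor-bearing mice.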

[1] = dose: 50.0 mg/kg/injection, schedule: Q04DX003 (ip), vehicle: saline with Tween-80
[2] = dose: 100.0 mg/kg/injection, schedule: Q04DX003 (ip), vehicle: saline with Tween-80
[3] = dose: 200.0 mg/kg/injection, schedule: Q04DX003 (ip), vehicle: saline with Tween-80
[4] = dose: 600.0 mg/kg/injection, schedule: Q04DX003 (ip), vehicle: Klucel (hydroxypropylcellulose) (HPC)

## CN=C(N)c1ccc(N=C(N)c2ccc(C(N)=Nc3ccc(C(N)=NC)cc3)cc2)cc1
dose: 60.0 mg/kg/injection, schedule: Q04DX003 (ip), vehicle: saline
  survivor count: 0 of 6 on day 11
dose: 120.0 mg/kg/injection, schedule: Q04DX003 (ip), vehicle: saline
  survivor count: 0 of 6 on day 11

## CCCCOCN(COCCCC)C12CC3CC(CC(C3)C1)C2
dose: 800.0 mg/kg/injection, schedule: Q04DX003 (sc), vehicle: saline with Tween-80
  survivor count: 1 of 6 on day 11

## CC(C)(O)/C=C/C(=O)[C@](C)(O)[C@H]1[C@H](O)C[C@@]2(C)[C@@H]3CC=C4[C@@H](C=C(O)C(=O)C4(C)C)[C@]3(C)C(=O)C[C@]12C
dose: 4.0 mg/kg/injection, schedule: Q04DX003 (ip), vehicle: water
  survivor count: 0 of 6 on day 11

## C[n+]1c(-c2ccc(NC(=O)c3ccc(C(=O)Nc4ccc(-c5cn6ccccc6[n+]5C)cc4)cc3)cc2)cn2ccccc21
dose: 25.0 mg/kg/injection, schedule: Q04DX003 (ip), vehicle: saline with Tween-80
  survivor count: 0 of 6 on day 11
[1]
  survivor count: 1 of 6 on day 11
[2]
  survivor count: 0 of 6 on day 11
[3]
  survivor count: 0 of 6 on day 11

## CC(C)NC(=O)N(CCCCBr)N=O
dose: 600.0 mg/kg/injection, schedule: Q04DX003 (sc), vehicle: Klucel (hydroxypropylcellulose) (HPC)
  survivor count: 0 of 3 on day 11
dose: 1200.0 mg/kg/injection, schedule: Q04DX003 (sc), vehicle: Klucel (hydroxypropylcellulose) (HPC)
  survivor count: 0 of 3 on day 11

## COC1=C(C)C(=O)C2=C(C1=O)C(CO)N1C(C#N)C3CC4C(C1C2N1CCOC41)N3C (configuration not stated)
dose: 4.17 mg/kg/injection, schedule: Q04DX003 (ip), vehicle: acid diluted with saline
  survivor count: 2 of 6 on day 11
dose: 5.0 mg/kg/injection, schedule: Q04DX003 (ip), vehicle: acid diluted with saline
  survivor count: 0 of 6 on day 11
dose: 10.0 mg/kg/injection, schedule: Q04DX003 (ip), vehicle: acid diluted with saline
  survivor count: 0 of 6 on day 11
dose: 10.0 mg/kg/injection, schedule: Q04DX003 (ip), vehicle: saline + alcohol
  survivor count: 0 of 6 on day 11
dose: 20.0 mg/kg/injection, schedule: Q04DX003 (ip), vehicle: saline + alcohol
  survivor count: 0 of 6 on day 11

## CC1CN1P1(N2CC2C)=NP(N2CC2C)(N2CC2C)=NP(N2CC2C)(N2CC2C)=N1 (configuration not stated)
dose: 300.0 mg/kg/injection, schedule: Q04DX003 (sc), vehicle: saline
  survivor count: 1 of 6 on day 11
dose: 600.0 mg/kg/injection, schedule: Q04DX003 (sc), vehicle: saline
  survivor count: 0 of 6 on day 11

## CCCCCCCC(=O)O[C@H]1[C@H]2[C@@H](CC1(C)C)C(=O)[C@]13O[C@H]1C(=O)[C@]1(CO1)[C@]23C
dose: 40.0 mg/kg/injection, schedule: Q04DX003 (ip), vehicle: saline with Tween-80
  survivor count: 0 of 6 on day 11

## CC1(C)COCN1COCCOCN1COCC1(C)C
dose: 100.0 mg/kg/injection, schedule: Q04DX003 (sc), vehicle: saline
  T/C: 134 % of control
dose: 800.0 mg/kg/injection, schedule: Q04DX003 (sc), vehicle: saline
  survivor count: 0 of 6 on day 11

## CN(CN1C(=O)CCC1=O)CN1C(=O)CCC1=O
dose: 600.0 mg/kg/injection, schedule: Q04DX003 (ip), vehicle: saline
  survivor count: 0 of 6 on day 11
dose: 1200.0 mg/kg/injection, schedule: Q04DX003 (ip), vehicle: saline
  survivor count: 0 of 6 on day 11

## CC1(C)N=C(N)N=C(N)N1c1ccc(F)c(C(F)(F)F)c1
dose: 3.12 mg/kg/injection, schedule: Q01DX010 (sc), vehicle: saline
  T/C: 145 % of control

## CN(C)/N=N/c1nc[nH]c1C(N)=O
dose: 100.0 mg/kg/injection, schedule: Q01DX010 (sc), vehicle: Klucel (hydroxypropylcellulose) (HPC)
  T/C: 127 % of control
dose: 800.0 mg/kg/injection, schedule: Q01DX010 (sc), vehicle: Klucel (hydroxypropylcellulose) (HPC)
  survivor count: 0 of 3 on day 11

## CS(=O)(=O)c1ncc(Br)cn1
dose: 50.0 mg/kg/injection, schedule: Q01DX010 (sc), vehicle: distilled water + Tween-80
  T/C: 144 % of control
dose: 100.0 mg/kg/injection, schedule: Q01DX010 (sc), vehicle: distilled water + Tween-80
  T/C: 147 % of control

## CC(=O)ON(C(C)=O)c1ccc(C(N)=O)cc1
dose: 300.0 mg/kg/injection, schedule: Q04DX003 (sc), vehicle: saline with Tween-80
  T/C: 132 % of control
dose: 1200.0 mg/kg/injection, schedule: Q04DX003 (sc), vehicle: saline with Tween-80
  survivor count: 3 of 5 on day 11

## C[C@]12CC[C@H]3[C@@H](CCC4=C[C@@H](OC5OCC(OC6OC(CO)C(O)C(O)C6O)C(O)C5O)CC[C@@]43C=O)[C@@]1(O)CCC2C1=CC(=O)OC1 (some centres not stated)
dose: 30.0 mg/kg/injection, schedule: Q04DX003 (sc), vehicle: Klucel (hydroxypropylcellulose) (HPC)
  T/C: 136 % of control
dose: 60.0 mg/kg/injection, schedule: Q04DX003 (sc), vehicle: Klucel (hydroxypropylcellulose) (HPC)
  survivor count: 2 of 6 on day 11
dose: 120.0 mg/kg/injection, schedule: Q04DX003 (sc), vehicle: Klucel (hydroxypropylcellulose) (HPC)
  survivor count: 1 of 6 on day 11

## COC12[C@@H]3N[C@@H]3CN1C1=C(C(=O)C(NCCSSCCNC3=C(C)C(=O)C4=C(C3=O)C(COC(N)=O)[C@]3(OC)C5N[C@@H]5CN43)=C(C)C1=O)[C@@H]2COC(N)=O (some centres not stated)
dose: 12.5 mg/kg/injection, schedule: Q04DX003 (ip), vehicle: DMSO
  survivor count: 3 of 6 on day 11
dose: 25.0 mg/kg/injection, schedule: Q04DX003 (ip), vehicle: DMSO
  survivor count: 1 of 6 on day 11

## [N-]=[N+]=[N-]
dose: 3.0 mg/kg/injection, schedule: Q04DX003 (ip), vehicle: water
  T/C: 136 % of control
dose: 24.0 mg/kg/injection, schedule: Q04DX003 (ip), vehicle: water
  survivor count: 0 of 6 on day 11
dose: 48.0 mg/kg/injection, schedule: Q04DX003 (ip), vehicle: water
  survivor count: 0 of 6 on day 11

## COc1ccc2c(c1)n([O-])c1ccccc1[n+]2=O
dose: 400.0 mg/kg/injection, schedule: Q04DX003 (ip), vehicle: saline with Tween-80
  survivor count: 0 of 6 on day 11

## CCOC(=O)Nc1cc(NC(C)/C(=N/O)c2ccccc2)c([N+](=O)[O-])c(N)n1 (configuration not stated)
dose: 150.0 mg/kg/injection, schedule: Q04DX003 (ip), vehicle: Klucel (hydroxypropylcellulose) (HPC)
  survivor count: 0 of 6 on day 11, 2 of 6 on day 11, 3 of 6 on day 11
dose: 300.0 mg/kg/injection, schedule: Q04DX003 (ip), vehicle: Klucel (hydroxypropylcellulose) (HPC)
  survivor count: 2 of 6 on day 11
[4]
  survivor count: 0 of 6 on day 11 and 1 of 6 on day 11
dose: 1200.0 mg/kg/injection, schedule: Q04DX003 (ip), vehicle: Klucel (hydroxypropylcellulose) (HPC)
  survivor count: 0 of 6 on day 11 and 3 of 6 on day 11

## CCCCCCSc1nc(COC(=O)NC)c(COC(=O)NC)n1C
dose: 67.5 mg/kg/injection, schedule: Q04DX003 (ip), vehicle: saline
  T/C: 126 % of control (2×)
dose: 270.0 mg/kg/injection, schedule: Q04DX003 (ip), vehicle: saline
  survivor count: 3 of 6 on day 11

## Cc1c(N)nc(C(CC(N)=O)NCC(N)C(N)=O)nc1C(=O)NC(C(=O)NC(C)C(O)C(C)C(=O)NC(C(=O)NCCc1nc(-c2nc(C(=O)NCCCNC(C)c3ccccc3)cs2)cs1)C(C)O)C(OC1OC(CO)C(O)C(O)C1OC1OC(CO)C(O)C(OC(N)=O)C1O)c1cnc[nH]1 (configuration not stated)
dose: 64.0 mg/kg/injection, schedule: Q01DX010 (sc), vehicle: saline
  survivor count: 0 of 6 on day 11

## COc1cc(/C=C/[N+](=O)[O-])cc(Br)c1OC
[1]
  survivor count: 3 of 6 on day 11
[2]
  survivor count: 2 of 6 on day 11
[3]
  survivor count: 0 of 6 on day 11

## Nc1ccn([C@@H](C=O)O[C@@H](C=O)CO)c(=O)n1
dose: 400.0 mg/kg/injection, schedule: Q04DX003 (sc), vehicle: saline
  survivor count: 0 of 3 on day 11

## C=CCOc1cc2c(cc1C(C)c1ccc(OC)cc1)OCO2 (configuration not stated)
[4]
  survivor count: 3 of 6 on day 11

## Clc1cccc(Cl)c1C(Nc1nncs1)Nc1nncs1
dose: 800.0 mg/kg/injection, schedule: Q04DX003 (ip), vehicle: saline with Tween-80
  survivor count: 1 of 6 on day 11

## CSc1cc(=O)n2c3ccccc3c3ccnc1c32
dose: 640.0 mg/kg/injection, schedule: Q04DX003 (sc), vehicle: saline with Tween-80
  survivor count: 2 of 5 on day 11
